No constants are given. Whether binding was seen depends on the method and setting. In cells and extracts the contact can be indirect. Some binding calls cover weakened binding; strength is not graded here.
Experiments:
[1] = biological target: p300 (endogenous) (human (endogenous in CRC cell lines)) (UniProt Q09472); assay: co-IP; endogenous proteins, whole lysates of untransfected CRC cells; 3 µg anti-p300 or anti-HDAC2 antibody 3 h at 4 °C, protein A/G-agarose beads; Western blot; normal mouse IgG as control
[2] = biological target: HDAC2 (endogenous) (human (endogenous in CRC cell lines)) (UniProt Q92769); assay: as above
HA-tagged p300 = HA-tagged p300 (UniProt Q09472); assay: co-IP; lysates of CRC cells transfected with tagged constructs (HA-p300; HDAC2 plasmid); 3 µg antibody (anti-HA or anti-HDAC2) 3 h at 4 °C, protein A/G-agarose beads; Western blot; normal mouse IgG as control
[3] = biological target: HDAC2 (from transfected pENTER-HDAC2 plasmid) (UniProt Q92769); assay: as above

By UniProt entry, the sequences of proteins in these tests, tags left out.
UniProt Q09472: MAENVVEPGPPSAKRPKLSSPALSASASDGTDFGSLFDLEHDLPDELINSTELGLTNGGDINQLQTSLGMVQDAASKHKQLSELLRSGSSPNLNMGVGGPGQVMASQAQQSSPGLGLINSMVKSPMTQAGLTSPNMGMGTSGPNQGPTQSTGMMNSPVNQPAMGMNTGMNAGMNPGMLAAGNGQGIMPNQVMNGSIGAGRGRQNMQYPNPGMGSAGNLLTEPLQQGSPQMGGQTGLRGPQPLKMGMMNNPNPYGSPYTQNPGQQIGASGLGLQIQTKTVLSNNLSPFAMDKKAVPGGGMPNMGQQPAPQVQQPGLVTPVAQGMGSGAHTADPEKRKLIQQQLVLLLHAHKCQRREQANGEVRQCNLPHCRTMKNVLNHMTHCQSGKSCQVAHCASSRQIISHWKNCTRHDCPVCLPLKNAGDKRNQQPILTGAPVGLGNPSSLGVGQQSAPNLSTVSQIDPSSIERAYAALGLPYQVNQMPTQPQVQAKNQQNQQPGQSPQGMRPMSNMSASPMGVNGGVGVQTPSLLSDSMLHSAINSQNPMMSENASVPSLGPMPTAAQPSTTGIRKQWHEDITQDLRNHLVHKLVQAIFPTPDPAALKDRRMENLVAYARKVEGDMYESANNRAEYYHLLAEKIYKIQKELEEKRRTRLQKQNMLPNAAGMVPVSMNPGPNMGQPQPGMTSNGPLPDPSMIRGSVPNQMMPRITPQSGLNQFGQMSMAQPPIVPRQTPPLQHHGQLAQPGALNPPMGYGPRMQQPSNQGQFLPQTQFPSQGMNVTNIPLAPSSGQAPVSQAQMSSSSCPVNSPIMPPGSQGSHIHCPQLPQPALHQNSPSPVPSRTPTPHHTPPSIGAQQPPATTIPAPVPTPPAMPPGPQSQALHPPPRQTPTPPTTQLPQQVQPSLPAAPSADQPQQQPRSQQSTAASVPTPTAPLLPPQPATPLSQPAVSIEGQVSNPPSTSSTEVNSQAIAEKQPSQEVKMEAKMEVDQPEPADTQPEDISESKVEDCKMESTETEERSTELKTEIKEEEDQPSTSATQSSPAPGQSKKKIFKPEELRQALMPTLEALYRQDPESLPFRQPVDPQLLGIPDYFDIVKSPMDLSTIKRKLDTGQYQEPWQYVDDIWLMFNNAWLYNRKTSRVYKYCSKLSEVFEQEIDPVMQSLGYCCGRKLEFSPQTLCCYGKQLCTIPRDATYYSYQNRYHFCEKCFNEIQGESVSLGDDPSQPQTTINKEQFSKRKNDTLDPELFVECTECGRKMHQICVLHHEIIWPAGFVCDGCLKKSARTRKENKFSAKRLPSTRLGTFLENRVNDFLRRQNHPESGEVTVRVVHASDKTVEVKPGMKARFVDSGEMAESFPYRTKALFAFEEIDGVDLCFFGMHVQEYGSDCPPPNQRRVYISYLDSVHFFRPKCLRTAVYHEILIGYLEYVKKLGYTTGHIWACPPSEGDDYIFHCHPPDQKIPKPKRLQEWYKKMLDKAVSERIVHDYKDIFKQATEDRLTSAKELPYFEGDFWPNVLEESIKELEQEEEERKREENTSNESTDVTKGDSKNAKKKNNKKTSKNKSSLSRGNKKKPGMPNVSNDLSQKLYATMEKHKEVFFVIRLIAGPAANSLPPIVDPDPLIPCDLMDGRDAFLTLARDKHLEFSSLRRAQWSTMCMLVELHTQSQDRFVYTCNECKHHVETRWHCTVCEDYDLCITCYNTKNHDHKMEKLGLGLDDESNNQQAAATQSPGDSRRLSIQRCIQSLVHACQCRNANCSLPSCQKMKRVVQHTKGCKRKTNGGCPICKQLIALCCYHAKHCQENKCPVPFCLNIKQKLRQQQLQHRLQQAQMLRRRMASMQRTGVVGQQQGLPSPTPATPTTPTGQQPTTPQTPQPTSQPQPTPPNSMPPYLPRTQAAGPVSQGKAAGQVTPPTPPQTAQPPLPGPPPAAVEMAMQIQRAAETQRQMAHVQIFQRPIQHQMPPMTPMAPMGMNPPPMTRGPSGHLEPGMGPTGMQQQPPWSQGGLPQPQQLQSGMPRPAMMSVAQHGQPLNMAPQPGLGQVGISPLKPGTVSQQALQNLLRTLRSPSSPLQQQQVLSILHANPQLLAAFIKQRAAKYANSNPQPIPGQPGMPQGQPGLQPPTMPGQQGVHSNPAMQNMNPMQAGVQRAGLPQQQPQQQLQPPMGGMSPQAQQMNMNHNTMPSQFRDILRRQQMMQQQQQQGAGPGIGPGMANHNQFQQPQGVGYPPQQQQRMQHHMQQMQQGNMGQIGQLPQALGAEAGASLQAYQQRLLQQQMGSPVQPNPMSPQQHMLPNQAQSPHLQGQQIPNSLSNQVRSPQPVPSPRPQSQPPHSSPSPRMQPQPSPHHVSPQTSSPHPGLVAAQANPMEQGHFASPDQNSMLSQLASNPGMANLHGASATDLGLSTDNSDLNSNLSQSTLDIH
UniProt Q92769: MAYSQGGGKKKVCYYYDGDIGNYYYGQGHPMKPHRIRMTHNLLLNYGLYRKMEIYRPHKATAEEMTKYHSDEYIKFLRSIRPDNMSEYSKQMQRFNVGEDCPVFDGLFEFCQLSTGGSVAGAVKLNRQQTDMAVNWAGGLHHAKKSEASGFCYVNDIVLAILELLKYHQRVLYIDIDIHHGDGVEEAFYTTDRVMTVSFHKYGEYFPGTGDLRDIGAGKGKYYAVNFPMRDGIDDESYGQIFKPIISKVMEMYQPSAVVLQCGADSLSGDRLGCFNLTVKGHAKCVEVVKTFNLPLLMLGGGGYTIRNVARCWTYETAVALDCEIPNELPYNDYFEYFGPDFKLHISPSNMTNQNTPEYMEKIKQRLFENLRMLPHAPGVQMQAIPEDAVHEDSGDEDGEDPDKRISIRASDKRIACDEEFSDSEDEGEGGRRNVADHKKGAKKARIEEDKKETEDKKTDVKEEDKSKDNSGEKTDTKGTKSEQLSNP
UniProt P25490: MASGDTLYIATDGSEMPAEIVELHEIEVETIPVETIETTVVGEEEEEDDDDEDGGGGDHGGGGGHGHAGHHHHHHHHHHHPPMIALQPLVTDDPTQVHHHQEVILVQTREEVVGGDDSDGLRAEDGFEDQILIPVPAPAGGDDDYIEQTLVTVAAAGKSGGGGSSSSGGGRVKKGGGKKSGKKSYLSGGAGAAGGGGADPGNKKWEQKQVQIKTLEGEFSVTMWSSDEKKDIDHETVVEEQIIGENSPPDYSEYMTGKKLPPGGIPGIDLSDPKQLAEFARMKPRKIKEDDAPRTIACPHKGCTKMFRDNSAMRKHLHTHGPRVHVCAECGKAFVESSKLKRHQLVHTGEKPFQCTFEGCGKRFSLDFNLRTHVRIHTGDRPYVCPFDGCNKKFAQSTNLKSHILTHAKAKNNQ

Measured: binding

YY1 (endogenous) (from UniProt P25490 1-414)
binds: [1] | [2] | HA-tagged p300 | [3]

From paper PMC6368584
